The source of these data is PMC6209770 (Frontiers in Pharmacology, 2018).

The conditions of this series: mouse, in vivo, ip, 5 mg/kg.

On to `COc1ccccc1N1CCN(CCCOc2cc(C)ccc2C)CC1.Cl` [HBK-17, 1-[(2,5-dimethylphenoxy)propyl]-4-(2-methoxyphenyl)piperazine hydrochloride], for which the “AUC0→∞ in brain” value was found to be 23860 ng·min/g.
